Tested on: effet analgésique de la morphine
Test: Hot plate test: antagonism of the analgesic effect of morphine
Type: in vivo, souris
Details: conclusion in words drawn from Tableau I (central antagonism of morphine analgesia)
Experimental: L'antagonisme à l'effet analgésique de la morphine a été évalué selon le test classique pour l'analgésie de la plaque chauffante (Eddy et Leibach, J. Pharmacol. 1953, 107, 385, modifié par Janseen et Jagenau, J. Pharm. Pharmacol. 1957, 9, 381-400). Ce test est très sensible pour l'action des antogonistes des opiacés.
On utilise des souris femelles de 18 à 22 g. Les substances sont administrées en solution physiologique (20 ml/kg) par voie sous-cutanée 5 minutes avant l'administration de la morphine (24 mg/kg s.c.). Trente minutes après la morphine, on place les animaux sur la plaque chauffante et l'on évalue le temps de réaction des animaux qui présentent la réaction nocicéptive (léchage des pattes).
L'activité des substances à activité antagoniste périphérique des narcotiques est évaluée sur la base de l'inhibition pour cent de l'effet constipant et de l'effet analgésique de la morphine. La dose qui inhibe de 50 % lesdits effets (DI50c pour l'effet constipant et […] pour l'effet analgésique) a été extrapolée de la droite de régression log dose-réponse en appliquant l'analyse de la variance par régression linéaire.

Row | SMILES | passage de la barrière hématoméningée
1 | C=CC[N+]1(C)CC[C@]23CCCC[C@H]2[C@H]1Cc1ccc(O)cc13 (single isomer, unassigned) [iodométhylate de lévallorphan] | ne passe pas la barrière hèmatoméningée
2 | C=CC[N+]1(CC=C)CC[C@]23CCCC[C@H]2[C@H]1Cc1ccc(O)cc13 [bromoallylate de lévallorphan] | montre une tendance au passage de la barrière hématomèningèe
